According to patent publication US20210308213A1:
No constants are given. Whether binding was seen depends on the method and setting. Binding seen in cells or lysates may run through a third protein. Some entries that bind do so weakly or less than the wild type.

Chains of the proteins cited; added tags and fusions are not shown. Lines headed by an entry give the natural chain unless they say otherwise; changes in a name come on top. Residues count along the entry.
UniProt P15941, residues 1110-1255: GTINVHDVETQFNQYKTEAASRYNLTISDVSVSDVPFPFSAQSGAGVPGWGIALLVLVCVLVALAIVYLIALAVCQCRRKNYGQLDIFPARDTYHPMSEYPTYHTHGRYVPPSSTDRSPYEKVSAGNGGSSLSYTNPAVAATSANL
UniProt Q9Y5B8: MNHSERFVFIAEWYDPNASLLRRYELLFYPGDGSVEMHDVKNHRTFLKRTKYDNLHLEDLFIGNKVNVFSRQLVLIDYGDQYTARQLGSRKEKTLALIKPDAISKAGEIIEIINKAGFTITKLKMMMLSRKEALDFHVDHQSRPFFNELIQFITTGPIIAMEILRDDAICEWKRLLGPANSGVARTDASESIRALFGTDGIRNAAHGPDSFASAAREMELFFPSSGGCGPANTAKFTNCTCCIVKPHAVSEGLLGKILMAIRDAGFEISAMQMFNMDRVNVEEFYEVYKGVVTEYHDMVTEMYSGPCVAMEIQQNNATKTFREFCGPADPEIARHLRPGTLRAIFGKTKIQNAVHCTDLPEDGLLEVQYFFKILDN

Assays:
[1] = target: MUC1* (human) (UniProt P15941); assay: co-immunoprecipitation from T47D breast cancer cell extracts with Ab-5; Western blot with anti-NME7, re-probed with anti-PSMGFR; size compared with recombinant proteins
[2] = target: MUC1* (human) (UniProt P15941); assay: co-immunoprecipitation from iPS7 and HES3 stem cell extracts with Ab-5; Western blot with B9, re-probed with anti-PSMGFR
[3] = target: MUC1* (human) (UniProt P15941); assay: co-immunoprecipitation from T47D breast cancer cell extracts with Ab-5 (anti-MUC1 cytoplasmic tail); Western blot with anti-NME7, re-probed with anti-PSMGFR

binding [1]: binds
binding [2]: binds
binding [3]: binds
Substance: NME7-X1 (from UniProt Q9Y5B8 125-376) (ligand)
